Binding data for 1 substance are collected here from doi:10.1101/2023.10.13.562244.

Amino acid sequences for entries named in this document (tags omitted).
UniProt Q3TKT4: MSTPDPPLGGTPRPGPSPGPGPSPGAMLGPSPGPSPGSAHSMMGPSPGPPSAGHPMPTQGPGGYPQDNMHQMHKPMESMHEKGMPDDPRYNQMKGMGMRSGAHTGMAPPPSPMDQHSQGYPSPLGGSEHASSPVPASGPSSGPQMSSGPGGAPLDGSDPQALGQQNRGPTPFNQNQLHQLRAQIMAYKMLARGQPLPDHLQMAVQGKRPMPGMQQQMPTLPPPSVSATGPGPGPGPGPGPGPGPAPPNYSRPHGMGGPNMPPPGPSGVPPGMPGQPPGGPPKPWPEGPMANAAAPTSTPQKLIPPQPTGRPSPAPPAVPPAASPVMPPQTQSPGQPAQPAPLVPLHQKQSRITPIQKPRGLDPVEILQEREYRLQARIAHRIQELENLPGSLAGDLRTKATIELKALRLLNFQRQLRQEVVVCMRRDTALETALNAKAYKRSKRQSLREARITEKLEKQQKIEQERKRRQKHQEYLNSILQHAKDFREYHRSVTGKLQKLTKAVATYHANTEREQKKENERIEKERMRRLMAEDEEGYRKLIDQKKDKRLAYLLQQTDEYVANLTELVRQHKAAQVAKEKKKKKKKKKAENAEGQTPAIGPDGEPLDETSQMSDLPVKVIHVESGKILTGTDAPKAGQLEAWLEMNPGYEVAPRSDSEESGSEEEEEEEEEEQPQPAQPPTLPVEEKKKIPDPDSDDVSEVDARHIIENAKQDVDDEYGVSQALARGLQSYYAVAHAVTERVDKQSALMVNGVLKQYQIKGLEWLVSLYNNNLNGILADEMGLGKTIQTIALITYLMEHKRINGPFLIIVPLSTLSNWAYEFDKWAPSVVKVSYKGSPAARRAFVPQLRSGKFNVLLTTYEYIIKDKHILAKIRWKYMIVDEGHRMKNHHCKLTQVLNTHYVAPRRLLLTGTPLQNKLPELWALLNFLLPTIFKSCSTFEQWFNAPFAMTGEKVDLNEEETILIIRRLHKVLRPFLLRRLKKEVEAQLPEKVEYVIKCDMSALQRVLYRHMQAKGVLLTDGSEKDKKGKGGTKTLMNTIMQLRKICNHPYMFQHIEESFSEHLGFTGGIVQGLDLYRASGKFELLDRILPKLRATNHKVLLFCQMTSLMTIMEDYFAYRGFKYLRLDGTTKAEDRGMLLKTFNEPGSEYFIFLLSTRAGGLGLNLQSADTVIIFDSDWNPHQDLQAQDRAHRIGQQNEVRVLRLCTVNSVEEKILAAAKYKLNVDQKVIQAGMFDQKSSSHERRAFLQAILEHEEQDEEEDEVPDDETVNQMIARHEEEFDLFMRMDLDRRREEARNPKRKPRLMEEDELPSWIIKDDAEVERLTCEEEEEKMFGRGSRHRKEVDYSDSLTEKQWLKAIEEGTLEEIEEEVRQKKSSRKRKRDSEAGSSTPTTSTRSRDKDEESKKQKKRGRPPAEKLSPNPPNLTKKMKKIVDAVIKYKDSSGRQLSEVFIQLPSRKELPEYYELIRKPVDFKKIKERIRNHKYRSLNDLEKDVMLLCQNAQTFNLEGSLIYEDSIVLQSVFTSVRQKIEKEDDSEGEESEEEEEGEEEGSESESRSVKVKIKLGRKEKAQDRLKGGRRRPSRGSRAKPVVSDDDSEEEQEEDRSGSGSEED

No constants are given. Whether binding was seen depends on the method and setting. Binding seen in cells or lysates may run through a third protein. Some entries that bind do so weakly or less than the wild type.

This experiment addresses T1, Dclk2 (doublecortin like kinase 2) (mouse (endogenous in primary cortical neurons)) (UniProt Q6PGN3).
T1 sequence: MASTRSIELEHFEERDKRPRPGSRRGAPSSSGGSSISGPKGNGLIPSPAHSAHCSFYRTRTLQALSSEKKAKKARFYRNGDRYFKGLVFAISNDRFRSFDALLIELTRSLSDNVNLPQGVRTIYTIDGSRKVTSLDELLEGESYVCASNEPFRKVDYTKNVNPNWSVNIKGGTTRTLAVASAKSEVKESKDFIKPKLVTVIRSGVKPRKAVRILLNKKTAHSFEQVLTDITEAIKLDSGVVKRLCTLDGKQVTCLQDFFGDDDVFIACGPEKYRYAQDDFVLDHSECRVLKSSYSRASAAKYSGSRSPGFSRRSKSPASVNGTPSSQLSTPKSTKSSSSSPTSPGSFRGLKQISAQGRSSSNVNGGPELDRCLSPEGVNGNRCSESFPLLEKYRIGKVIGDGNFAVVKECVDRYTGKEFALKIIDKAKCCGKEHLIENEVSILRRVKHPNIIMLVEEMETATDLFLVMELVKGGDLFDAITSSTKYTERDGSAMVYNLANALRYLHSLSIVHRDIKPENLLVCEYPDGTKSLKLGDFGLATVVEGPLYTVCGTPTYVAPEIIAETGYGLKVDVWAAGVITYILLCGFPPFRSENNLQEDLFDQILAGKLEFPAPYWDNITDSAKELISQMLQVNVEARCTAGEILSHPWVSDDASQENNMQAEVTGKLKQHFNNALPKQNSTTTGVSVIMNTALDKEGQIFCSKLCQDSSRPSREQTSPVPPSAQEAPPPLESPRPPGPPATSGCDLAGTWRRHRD
Kind of experiment: co-IP.

On to “Brg1/Smarca4 (from UniProt Q3TKT4 1-1613)”, for which the binding entry was “binds”.
